Test results reported in PubChem BioAssay AID485314 (National Center for Advancing Translational Sciences (NCATS), 2010).
In all, about 340,000 compounds went through this assay and about 4,500 (1.3%) were called active. This list was built around the results that the source calls inconclusive (neither active nor inactive); the mix of calls is not that of the screen. The call rests on the fitted dose curve; in most records, active means well fitted inhibition curve with a large enough effect; inconclusive means small, poorly fitted or top-dose-only effect, or another doubt; inactive means no such curve, though single readings can be large or run the other way. Potencies of inconclusive entries are doubtful fits and often do not repeat.

Target: DNA polymerase beta (Homo sapiens) (UniProt P06746)
Experiment: qHTS Assay for Inhibitors of DNA Polymerase Beta
Details: Pol beta primer extension/strand displacement, fluorescence kinetic; activity change, negative = inhibition: at 114 µM (top of the series)
In short: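 Enzyme-only controls used 10 nM Pol beta; buffer lacking enzyme served as negative control. Compound preincubated 15 min, then 50 nM substrate added; 0 and 10 min reads at room temperature.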
On the % scale 0 is the no-effect control and ±100 the full control effect; potency means the concentration at half of the fitted maximal effect.

Potency, inconclusive:
COc1cccc(/C=N/NC(=O)c2csc(-n3nc(C)cc3C(F)(F)F)n2)c1 2.51 µM [inhibitor, full curve], Cc1ccn2c(C(=O)NN=C3CCN(C)CC3)c(C)nc2c1 89.1 µM [inhibitor, single point], Cc1c(N=C2C=CC(=O)c3ccccc32)c(=O)n(-c2ccccc2)n1C 28.2 µM [inhibitor, full curve], Cc1cccc(NC(=O)Cn2nnc(C(=O)NCc3cccs3)c2N)c1 44.7 µM [inhibitor, partial curve, poor fit], CCC(C(=O)Nc1ccc(C(C)C)cc1)n1nc(C)n2c(cc3cc(C)ccc32)c1=O (stereo unspecified) 89.1 µM [inhibitor, single point], NC(=O)CSc1nnc(-c2ccoc2)o1 8.91 µM [inhibitor, full curve], COC(=O)c1ccc(CSc2nnc3c(n2)[nH]c2ccccc23)cc1 89.1 µM [inhibitor, single point], O=C(COC(=O)CCC(=O)c1ccc(F)cc1)NCc1ccco1 89.1 µM [inhibitor, single point], Cc1cc(=O)oc2c1c(C)nn2-c1ccc(Br)cc1 70.8 µM [inhibitor, single point], Cc1ccc(S(=O)(=O)c2nc(-c3cccs3)oc2SCC(=O)Nc2cc(C)cc(C)c2)cc1 20 µM [inhibitor, full curve], CN1C(=O)/C(=C\c2ccc(-c3ccccc3)o2)SC1=S 25.1 µM [inhibitor, single point], Cc1cc(NCCCn2ccnc2)n2c(nc3ccccc32)c1C#N 39.8 µM [inhibitor, single point], O=[N+]([O-])c1cccc(N/N=C/c2cccc(O)c2O)c1 7.08 µM [inhibitor, full curve], CC(=O)Nc1ccc(-c2nc(C)c(C(C)=O)n2O)cc1 89.1 µM [inhibitor, single point], COc1ccc(C(C)=O)cc1CSc1nnc(-c2ccccc2O)n1-c1ccccc1 112 µM [inhibitor, partial curve], O=C(O)CCN1CCc2ccccc21 39.8 µM [inhibitor, partial curve, poor fit], N=C1S/C(=C\c2ccc(O)cc2)C(=O)N1c1ccc(F)cc1 3.16 µM [inhibitor, full curve], O=C(c1cc(C2CC2)on1)N1CCN(c2ccccc2)CC1 25.1 µM [inhibitor, partial curve], COc1ccc(-c2nnc(SCCOc3cccc(C)c3)n2N)cc1 70.8 µM [inhibitor, single point], Cc1nn(Cc2noc(C(=O)NCc3ccc4c(c3)OCO4)n2)c(C)c1Br 89.1 µM [inhibitor, single point], Cc1ccc(C(=O)NCCc2n[nH]c(=S)n2C)cc1 0.282 µM [inhibitor, full curve, poor fit], COCCNc1nc2c(c(=O)n(Cc3cccc(Cl)c3)c(=O)n2C)n1C 0.141 µM [inhibitor, full curve, poor fit], Cc1cc(NC(=O)Cc2ccccc2)nc2c1c(=O)oc1ccccc12 79.4 µM [inhibitor, single point], COc1ccc(-c2cc(C(=O)Nc3ccc(S(N)(=O)=O)cc3)c3ccccc3n2)cc1OC 28.2 µM [inhibitor, full curve], Cc1ccc(NC(=O)CN2C(=O)CCc3cc(S(=O)(=O)N4CCOCC4)ccc32)c(C)c1 89.1 µM [inhibitor, single point], O=C(Nc1ccc2c(c1)OCCO2)c1ccc2ccccc2n1 89.1 µM [inhibitor, single point], O=C(O)/C=C/c1nc(-c2ccccc2)n2ccccc12 25.1 µM [inhibitor, full curve], N=c1c[n+](N2CCOCC2)[n-]o1 17.8 µM [inhibitor, partial curve], COc1cc(CNc2nc(C)c([N+](=O)[O-])c(C)c2C#N)cc(OC)c1 89.1 µM [inhibitor, single point], O=C(Cc1ccccc1)NNc1c2ccccc2nc2ccccc12 50.1 µM [inhibitor, partial curve], Cc1ccc(/C=N/N2CCN(Cc3ccccc3)CC2)s1 22.4 µM [inhibitor, full curve, poor fit], COc1ccc2c(c1OC)C(=O)N1N=C(c3ccc(-c4ccccc4)cc3)CC21 (stereo unspecified) 0.562 µM [inhibitor, full curve], O=C(Nc1cccc(C(F)(F)F)c1)C(Sc1ncnc2ccccc12)c1ccccc1 (stereo unspecified) 3.98 µM [inhibitor, partial curve, poor fit], O=C(C1CCCN(S(=O)(=O)c2cc(Cl)ccc2Cl)C1)N1CCCC1 (stereo unspecified) 2.82 µM [inhibitor, full curve, poor fit], N/C(=N\OC(=O)c1cccs1)c1cccc(Br)c1 0.316 µM [inhibitor, full curve, poor fit], Cc1ccc(C)n1-n1c(C)nc2sc3c(c2c1=O)CCCCC3 0.794 µM [inhibitor, full curve, poor fit], CC(=O)N1N=C(c2ccccc2)OC1c1ccc([N+](=O)[O-])s1 (stereo unspecified) 3.55 µM [inhibitor, full curve, poor fit], Cc1nnc(NCc2ccncc2)c2ccccc12 89.1 µM [inhibitor, single point], O=C(CSc1nc2cc3ccccc3cc2[nH]1)Nc1cccc(C(F)(F)F)c1 17.8 µM [inhibitor, partial curve]

Potency, active:
O=C1NC(=S)S/C1=C\c1ccc(SCc2ccco2)o1 2.24 µM, CCOC(=O)c1sc2nc3c(SCC(=O)O)cc(C(=O)c4ccccc4O)cn3c(=O)c2c1C 3.16 µM, COc1cccc(C2Nc3ccc4ccccc4c3C3=C2C(=O)CCC3)c1O (stereo unspecified) 89.1 µM, CC(=O)[C@]1(O)Cc2c(O)c3c(c(O)c2[C@@H](O[C@H]2C[C@H](N)[C@H](O)[C@H](C)O2)C1)C(=O)c1ccccc1C3=O 14.1 µM, Cc1occc1-c1nnc(SCc2cc(=O)n3cc(Br)ccc3n2)n1C 44.7 µM, O=C1S/C(=C\c2ccc(O)c([N+](=O)[O-])c2)C(=O)N1Cc1cccc([N+](=O)[O-])c1 31.6 µM

Potency, inactive:
O=C(NCc1ccc(Cl)cc1)c1ccc2c(c1)NC(=O)C(CS(=O)(=O)Cc1ccc(F)cc1Cl)N2 (stereo unspecified), Cn1cccc1CC(=O)N/N=C/c1cccc2ccccc12, CCOc1ccccc1C(=O)Nc1ccc(-n2nncc2-c2ccccc2)cc1, COc1cccc(NC(=O)CCc2nnc3n(Cc4ccccc4Cl)c(=O)c4ccccc4n23)c1, Cc1ccc([N+](=O)[O-])cc1S(=O)(=O)Nc1ccc(O)c(Sc2ncn[nH]2)c1, CCN1C(=NCc2cc(OC)c(OC)c(OC)c2)N[C@@H](c2cccc(F)c2)C(C(=O)OC)=C1C, Nc1nc(-c2ccccn2)nc(N)c1Cc1ccc(Cl)cc1Cl, Cc1oc(-c2ccc(Cl)cc2)nc1CS(=O)CC(=O)NCCc1ccccc1 (stereo unspecified), Cn1c(=O)[nH]c(=O)c2c1[nH]c(=S)n2Cc1ccc(Cl)cc1, O=C(O)CCN1C(=O)/C(=C\c2ccncc2)SC1=S, COC(=O)CC1Oc2ccc(F)cc2-n2cc(-c3ccc(C)cc3)nc21 (stereo unspecified), COc1cc(OC)c(NS(=O)(=O)c2c(C(=O)N3CCCCCC3)c(C)n(C)c2C)cc1Cl, O=C(c1ccc(Cl)cc1)c1oc2ccccc2c1CS(=O)c1ccc(Cl)cc1 (stereo unspecified), Cc1ccccc1NC(=O)c1c(C)[nH]c(=S)c(C#N)c1-c1ccco1, CC12CC(NC(=O)N1c1cccc(C(=O)N3CCN(c4ccccc4)CC3)c1)c1ccccc1O2 (stereo unspecified), COc1ccc(OC)c(C(=O)COC(=O)CNC(=O)C2CCCCC2)c1, NS(=O)(=O)c1ccc(NC(=S)Nc2ccc(Br)c(Cl)c2)cc1, CCN(CC)S(=O)(=O)c1ccc2c(c1)c(=O)c(C(=O)N1CCN(c3ccccc3)CC1)cn2C, Cc1ccccc1-n1nc(CO)c(C(=O)NCCc2ccccc2)n1, COc1ccc(Cl)cc1NC(=O)C1CCN(c2ncnc3c2nc2n3CCCCC2)CC1, CCCOc1ccc(-c2cccc(NS(=O)(=O)c3cc(OC)ccc3OC)c2)nn1, CC(=O)Nc1ccc(C(=O)CN2CCN(c3ccccc3)CC2)cc1

Activity change, negative = inhibition, inconclusive:
O=C(CSc1nc(-c2ccccc2)nc2ccc(F)cc12)Nc1cccc(C(=O)O)c1 -36.4% [inhibitor], CSc1ccc(CNC(=O)Cc2ccc(NC(=O)C3=C(C)OCCS3)cc2)cc1 -75.7% [inhibitor], C/C(=N\Nc1nc2ccccc2[nH]1)c1ccc([N+](=O)[O-])cc1 -48.4% [inhibitor], N=C1/C(=C\c2ccc(SCc3ccccc3)o2)C(=O)N=C2SC(CC(=O)N3CCOCC3)=NN12 -94.6% [inhibitor]
